{"sequences": {"note": "Sequences of proteins named here, by UniProt entry; tags and fusion partners are left off.", "UniProt Q08122": "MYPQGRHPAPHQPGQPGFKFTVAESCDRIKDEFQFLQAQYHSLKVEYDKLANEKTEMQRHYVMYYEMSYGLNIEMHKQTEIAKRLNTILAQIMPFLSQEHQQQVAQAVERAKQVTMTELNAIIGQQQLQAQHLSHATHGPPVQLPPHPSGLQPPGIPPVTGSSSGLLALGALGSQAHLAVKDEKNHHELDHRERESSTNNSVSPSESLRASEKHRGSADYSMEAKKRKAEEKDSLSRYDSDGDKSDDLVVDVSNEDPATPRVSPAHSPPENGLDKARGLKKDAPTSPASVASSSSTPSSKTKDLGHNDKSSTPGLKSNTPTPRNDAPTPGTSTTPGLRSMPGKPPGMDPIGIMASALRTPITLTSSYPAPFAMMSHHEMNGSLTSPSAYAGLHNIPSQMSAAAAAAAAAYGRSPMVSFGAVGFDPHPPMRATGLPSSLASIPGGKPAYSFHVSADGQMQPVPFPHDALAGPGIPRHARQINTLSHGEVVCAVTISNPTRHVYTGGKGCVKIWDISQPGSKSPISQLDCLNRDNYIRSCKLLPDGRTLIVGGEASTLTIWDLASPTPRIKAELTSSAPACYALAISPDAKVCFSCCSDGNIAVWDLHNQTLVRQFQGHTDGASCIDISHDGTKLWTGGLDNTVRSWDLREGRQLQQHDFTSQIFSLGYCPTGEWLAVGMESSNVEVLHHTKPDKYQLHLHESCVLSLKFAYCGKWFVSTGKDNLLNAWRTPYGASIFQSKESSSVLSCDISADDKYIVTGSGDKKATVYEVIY", "UniProt Q62440": "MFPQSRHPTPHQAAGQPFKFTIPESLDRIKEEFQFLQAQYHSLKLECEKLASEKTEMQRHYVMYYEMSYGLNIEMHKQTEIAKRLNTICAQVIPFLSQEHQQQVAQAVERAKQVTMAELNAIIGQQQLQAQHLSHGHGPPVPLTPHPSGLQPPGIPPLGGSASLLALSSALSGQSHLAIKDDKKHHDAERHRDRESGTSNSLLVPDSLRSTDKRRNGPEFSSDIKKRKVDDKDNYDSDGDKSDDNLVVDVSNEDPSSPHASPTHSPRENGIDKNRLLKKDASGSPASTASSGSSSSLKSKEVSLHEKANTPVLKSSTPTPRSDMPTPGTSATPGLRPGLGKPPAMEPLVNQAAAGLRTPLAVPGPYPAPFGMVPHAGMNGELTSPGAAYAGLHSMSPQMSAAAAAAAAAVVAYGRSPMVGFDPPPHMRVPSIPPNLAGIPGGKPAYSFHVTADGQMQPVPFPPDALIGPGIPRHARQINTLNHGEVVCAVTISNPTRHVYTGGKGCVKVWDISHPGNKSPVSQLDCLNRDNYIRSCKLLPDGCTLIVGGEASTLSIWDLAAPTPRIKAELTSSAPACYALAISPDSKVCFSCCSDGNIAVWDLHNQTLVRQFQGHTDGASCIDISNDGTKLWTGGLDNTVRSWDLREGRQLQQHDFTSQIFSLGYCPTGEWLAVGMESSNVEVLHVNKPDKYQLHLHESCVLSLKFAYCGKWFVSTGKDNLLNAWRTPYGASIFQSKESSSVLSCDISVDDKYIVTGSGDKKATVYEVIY", "UniProt P48431": "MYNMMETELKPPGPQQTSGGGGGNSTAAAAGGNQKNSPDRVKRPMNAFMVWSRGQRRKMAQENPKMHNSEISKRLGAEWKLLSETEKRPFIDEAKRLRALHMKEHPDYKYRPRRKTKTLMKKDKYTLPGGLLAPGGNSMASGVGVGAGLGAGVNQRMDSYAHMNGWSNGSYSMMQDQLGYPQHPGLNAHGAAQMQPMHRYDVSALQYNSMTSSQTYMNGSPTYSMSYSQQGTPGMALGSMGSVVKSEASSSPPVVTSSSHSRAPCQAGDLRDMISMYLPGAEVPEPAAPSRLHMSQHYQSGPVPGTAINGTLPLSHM", "UniProt P48432": "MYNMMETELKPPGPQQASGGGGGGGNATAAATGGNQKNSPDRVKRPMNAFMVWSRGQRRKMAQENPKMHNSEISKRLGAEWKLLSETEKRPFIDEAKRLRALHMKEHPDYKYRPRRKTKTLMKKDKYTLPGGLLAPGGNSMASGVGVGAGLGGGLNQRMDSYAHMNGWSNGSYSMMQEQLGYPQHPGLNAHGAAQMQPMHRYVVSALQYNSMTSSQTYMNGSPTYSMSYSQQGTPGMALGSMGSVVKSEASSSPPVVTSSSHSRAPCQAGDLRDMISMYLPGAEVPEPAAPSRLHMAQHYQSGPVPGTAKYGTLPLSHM"}, "source": "paper PMC4148960", "key": {"[1]": {"molecular_target": "T1, MYC-tagged Grg5 (in human neural stem cells) (UniProt P63002)", "T1 sequence": "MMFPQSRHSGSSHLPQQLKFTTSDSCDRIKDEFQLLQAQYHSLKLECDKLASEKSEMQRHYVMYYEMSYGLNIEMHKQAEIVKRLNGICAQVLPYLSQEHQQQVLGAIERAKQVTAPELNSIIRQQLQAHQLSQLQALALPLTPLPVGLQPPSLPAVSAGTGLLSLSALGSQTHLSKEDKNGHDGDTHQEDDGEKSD", "assay": "co-IP; human ReNcell VM NSCs transfected with MYC-tagged Grg3 or Grg5; cells treated with 1 mM DSP cross-linker for 30 min; MYC antibody-conjugated beads; blot with anti-Sox2 for endogenous Sox2"}, "MYC-tagged Grg3": {"molecular_target": "MYC-tagged Grg3 (UniProt Q08122)", "assay": "co-IP; human ReNcell VM NSCs transfected with MYC-tagged Grg3 or Grg5; cells treated with 1 mM DSP cross-linker for 30 min; MYC antibody-conjugated beads; blot with anti-Sox2 for endogenous Sox2"}, "[2]": {"molecular_target": "T2, MYC-Grg5 (in COS-7 cells) (UniProt P63002)", "T2 sequence": "T1 sequence", "assay": "co-IP; COS-7 cells co-transfected with MYC-Grg5 and WT Sox2 or Sox2^M203–209; 1 mM DSP cross-linker for 30 min; MYC antibody-conjugated beads; blot with anti-Sox2"}, "GST-fused Grg5 [3]": {"molecular_target": "T3, GST-fused Grg5 (UniProt P63002)", "T3 sequence": "T1 sequence", "assay": "pull-down; data not shown: amounts of radiolabelled Sox2 pulled down by GST-Grg1 and GST-Grg5 compared"}, "GST-fused Grg5 [4]": {"molecular_target": "T3, GST-fused Grg5", "assay": "pull-down; GST-Grg1 or GST-Grg5 from lysed BL21 E. coli incubated with S^35-labelled in vitro translated Sox2 proteins; pulled down with Glutathione-sepharose 4B beads; PAGE gel on a phosphorimager"}, "GST-fused Grg1": {"molecular_target": "GST-fused Grg1 (UniProt Q62440)", "assay": "pull-down; GST-Grg1 or GST-Grg5 from lysed BL21 E. coli incubated with S^35-labelled in vitro translated Sox2 proteins; pulled down with Glutathione-sepharose 4B beads; PAGE gel on a phosphorimager"}}, "note": "These are yes or no findings as the source states them, for the method shown. In cells and extracts the contact can be indirect. Some binding calls cover weakened binding; strength is not graded here. For part of these data: Where a sequence is shown, tags or fusion partners need not be part of it.", "data": [{"substance": "Sox2 (endogenous, human neural stem cells) (from UniProt P48431 1-317)", "values": [{"measurement": "binding", "setting": "[1]", "result": "binds"}, {"measurement": "binding", "setting": "MYC-tagged Grg3", "result": "binds"}]}, {"substance": "WT Sox2 (transfected, COS-7 cells) (from UniProt P48432 1-319)", "values": [{"measurement": "binding", "setting": "[2]", "result": "binds"}]}, {"substance": "radiolabelled Sox2 (in vitro translated) (from UniProt P48432 1-319)", "values": [{"measurement": "binding", "setting": "GST-fused Grg5 [3]", "result": "binds"}, {"measurement": "binding", "setting": "GST-fused Grg5 [4]", "result": "binds"}, {"measurement": "binding", "setting": "GST-fused Grg1", "result": "binds"}]}]}
